In the supplement of paper PMC8612539:
The source gives many values for each of these; only a part stands here.

Tested on: Escherichia coli
Assay: minimum inhibitory concentration (MIC)
Description: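 Broth microdilution MIC (Sensititre BOPO7F bovine plate, CLSI methods) of 19 antimicrobials against field isolates of P. multocida, M. haemolytica, H. somni (deep nasopharyngeal swabs) and E. coli, Enterococcus spp. (rectal swabs) from weaned dairy heifers. Incubation 16-24 h at 35 C. MIC is the lowest concentration preventing visible growth. Values with <= or > lie at the tested range limits. Trimethoprim-sulfamethoxazole is given as the trimethoprim component of a 1:19 mixture.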

Measured: minimum inhibitory concentration

CNC(C)C1CCC(N)C(OC2C(N)CC(N)C(OC3OCC(C)(O)C(NC)C3O)C2O)O1 (stereo unspecified) [Gentamicin]
8 µg/mL: isolate (source animal id): 27 | isolate (source animal id): 29 | isolate (source animal id): 291 | isolate (source animal id): 295
4 µg/mL: isolate (source animal id): 287
> 16 µg/mL: isolate (source animal id): 57
≤ 1 µg/mL: isolate (source animal id): 1 | isolate (source animal id): 2 | isolate (source animal id): 3 | isolate (source animal id): 4 | isolate (source animal id): 5 | isolate (source animal id): 6 | isolate (source animal id): 7 | isolate (source animal id): 17 | isolate (source animal id): 18 | isolate (source animal id): 19 | isolate (source animal id): 20 | isolate (source animal id): 21 | isolate (source animal id): 22 | isolate (source animal id): 23 | isolate (source animal id): 24 | isolate (source animal id): 25 | isolate (source animal id): 26 | isolate (source animal id): 28 | isolate (source animal id): 30 | isolate (source animal id): 31 | isolate (source animal id): 32 | isolate (source animal id): 33 | isolate (source animal id): 34 | isolate (source animal id): 35 | isolate (source animal id): 36 | isolate (source animal id): 37 | isolate (source animal id): 38 | isolate (source animal id): 39 | isolate (source animal id): 40 | isolate (source animal id): 41 | isolate (source animal id): 42 | isolate (source animal id): 43 | isolate (source animal id): 44 | isolate (source animal id): 45 | isolate (source animal id): 46 | isolate (source animal id): 47 | isolate (source animal id): 48 | isolate (source animal id): 49 | isolate (source animal id): 50 | isolate (source animal id): 51 | isolate (source animal id): 52 | isolate (source animal id): 53 | isolate (source animal id): 54 | isolate (source animal id): 55 | isolate (source animal id): 56 | isolate (source animal id): 58 | isolate (source animal id): 59 | isolate (source animal id): 60 | isolate (source animal id): 61 | isolate (source animal id): 62 | isolate (source animal id): 63 | isolate (source animal id): 64 | isolate (source animal id): 65 | isolate (source animal id): 67 | isolate (source animal id): 68 | isolate (source animal id): 69 | isolate (source animal id): 70 | isolate (source animal id): 72 | isolate (source animal id): 73 | isolate (source animal id): 74 | isolate (source animal id): 75 | isolate (source animal id): 76 | isolate (source animal id): 77 | isolate (source animal id): 78 | isolate (source animal id): 79 | isolate (source animal id): 80 | isolate (source animal id): 81 | isolate (source animal id): 82 | isolate (source animal id): 83 | isolate (source animal id): 84 | isolate (source animal id): 85 | isolate (source animal id): 86 | isolate (source animal id): 87 | isolate (source animal id): 88 | isolate (source animal id): 89 | isolate (source animal id): 90 | isolate (source animal id): 91 | isolate (source animal id): 92 | isolate (source animal id): 93 | isolate (source animal id): 96 | isolate (source animal id): 97 | isolate (source animal id): 189 | isolate (source animal id): 190 | isolate (source animal id): 191 | isolate (source animal id): 192 | isolate (source animal id): 193 | isolate (source animal id): 194 | isolate (source animal id): 195 | isolate (source animal id): 196 | isolate (source animal id): 197 | isolate (source animal id): 198 | isolate (source animal id): 199 | isolate (source animal id): 200 | isolate (source animal id): 201 | isolate (source animal id): 202 | isolate (source animal id): 203 | isolate (source animal id): 204 | isolate (source animal id): 205 | isolate (source animal id): 206 | isolate (source animal id): 207 | isolate (source animal id): 208 | isolate (source animal id): 209 | isolate (source animal id): 210 | isolate (source animal id): 211 | isolate (source animal id): 212 | isolate (source animal id): 214 | isolate (source animal id): 215 | isolate (source animal id): 216 | isolate (source animal id): 217 | isolate (source animal id): 218 | isolate (source animal id): 219 | isolate (source animal id): 220 | isolate (source animal id): 221 | isolate (source animal id): 222 | isolate (source animal id): 224 | isolate (source animal id): 225 | isolate (source animal id): 226 | isolate (source animal id): 227 | isolate (source animal id): 228 | isolate (source animal id): 229 | isolate (source animal id): 230 | isolate (source animal id): 231 | isolate (source animal id): 232 | isolate (source animal id): 233 | isolate (source animal id): 234 | isolate (source animal id): 235 | isolate (source animal id): 236 | isolate (source animal id): 237 | isolate (source animal id): 238 | isolate (source animal id): 239 | isolate (source animal id): 240 | isolate (source animal id): 241 | isolate (source animal id): 244 | isolate (source animal id): 245 | isolate (source animal id): 246 | isolate (source animal id): 247 | isolate (source animal id): 248 | isolate (source animal id): 249 | isolate (source animal id): 250 | isolate (source animal id): 251 | isolate (source animal id): 252 | isolate (source animal id): 253 | isolate (source animal id): 254 | isolate (source animal id): 255 | isolate (source animal id): 256 | isolate (source animal id): 257 | isolate (source animal id): 258 | isolate (source animal id): 259 | isolate (source animal id): 260 | isolate (source animal id): 261 | isolate (source animal id): 262 | isolate (source animal id): 263 | isolate (source animal id): 264 | isolate (source animal id): 265 | isolate (source animal id): 266 | isolate (source animal id): 267 | isolate (source animal id): 268 | isolate (source animal id): 270 | isolate (source animal id): 271 | isolate (source animal id): 272 | isolate (source animal id): 273 | isolate (source animal id): 274 | isolate (source animal id): 275 | isolate (source animal id): 276 | isolate (source animal id): 277 | isolate (source animal id): 278 | isolate (source animal id): 279 | isolate (source animal id): 280 | isolate (source animal id): 282 | isolate (source animal id): 283 | isolate (source animal id): 284 | isolate (source animal id): 285 | isolate (source animal id): 286 | isolate (source animal id): 288 | isolate (source animal id): 289 | isolate (source animal id): 290 | isolate (source animal id): 292 | isolate (source animal id): 293 | isolate (source animal id): 294 | isolate (source animal id): 296 | isolate (source animal id): 297 | isolate (source animal id): 298 | isolate (source animal id): 299 | isolate (source animal id): 300 | isolate (source animal id): 301 | isolate (source animal id): 302 | isolate (source animal id): 303 | isolate (source animal id): 304 | isolate (source animal id): 305 | isolate (source animal id): 306 | isolate (source animal id): 307 | isolate (source animal id): 308 | isolate (source animal id): 309 | isolate (source animal id): 310 | isolate (source animal id): 311 | isolate (source animal id): 312 | isolate (source animal id): 313 | isolate (source animal id): 314 | isolate (source animal id): 315 | isolate (source animal id): 316 | isolate (source animal id): 318 | isolate (source animal id): 319 | isolate (source animal id): 320 | isolate (source animal id): 321 | isolate (source animal id): 322 | isolate (source animal id): 323 | isolate (source animal id): 324 | isolate (source animal id): 325 | isolate (source animal id): 326 | isolate (source animal id): 327 | isolate (source animal id): 328 | isolate (source animal id): 329 | isolate (source animal id): 330 | isolate (source animal id): 331 | isolate (source animal id): 332 | isolate (source animal id): 333 | isolate (source animal id): 334 | isolate (source animal id): 335 | isolate (source animal id): 336 | isolate (source animal id): 337 | isolate (source animal id): 338 | isolate (source animal id): 339 | isolate (source animal id): 341
2 µg/mL: isolate (source animal id): 66 | isolate (source animal id): 71 | isolate (source animal id): 94 | isolate (source animal id): 95 | isolate (source animal id): 213 | isolate (source animal id): 223 | isolate (source animal id): 242 | isolate (source animal id): 243 | isolate (source animal id): 269 | isolate (source animal id): 281 | isolate (source animal id): 317 | isolate (source animal id): 340
